Inconclusive results, whose numbers are uncertain, are shown with a selection of clear calls. Potencies of inconclusive entries are doubtful fits and often do not repeat. Activity calls are given as the source filed them. Calls come from the whole dose curve; as a rule, active = well fitted curve in the direction sought with a large enough effect; inconclusive = small, poorly fitted or top-dose-only effect, or another doubt; inactive = no such curve, though single readings can be large; an effect the other way counts as inactive or inconclusive.
Experiments:
[1] = Quantitative High-Throughput drug screen in 47 multiple myeloma cell lines against the NCATS MIPE library collection: JIM3_ECACC cell viability assay (AID 1918963; note: nearly all actives have a fitted effect of over 35% in size); details: JIM3 myeloma viability, CellTiter-Glo ATP, 48 h; viability, percent of control: at 45.8 µM (top of the series) unless noted
Method in brief: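 Inhibition of cell viability is measured here. Each line was plated at 500 cells per well, treated with MIPE 4.0 drugs, kept 48 hours at 37C, then assayed for ATP content by CellTiter-Glo luminescence.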

[2] = Quantitative High-Throughput drug screen in 47 multiple myeloma cell lines against the NCATS MIPE library collection: JIM1_ECACC cell viability assay (AID 1918964); details: JIM1 myeloma viability, CellTiter-Glo ATP luminescence, 48 h; viability (% of DMSO): at 45.8 µM (top of the series)
Method in brief: (§1)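 Primary qHTS used for cherry-picking: cells at 500/well, library compounds for 48 h (37C, 5% CO2), luminescent ATP assay.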

[3] = Quantitative High-Throughput drug screen in 47 multiple myeloma cell lines against the NCATS MIPE library collection: INA6_PLB cell viability assay (AID 1918965; note: nearly all actives have a fitted effect of over 55% in size); details: INA6 myeloma viability, CellTiter-Glo ATP luminescence, 48 h; viability (% of control): at 45.8 µM (top of the series)
Method in brief: (§2)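 qHTS of the MIPE 4.0 collection: 500 myeloma cells/well, 48 h drug exposure at 37C in 5% CO2, then CellTiter-Glo for 5 min at room temperature before luminescence reading.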

[4] = Quantitative High-Throughput drug screen in 47 multiple myeloma cell lines against the NCATS MIPE library collection: JJN3_DSMZ cell viability assay (AID 1918966; note: nearly all actives have a fitted effect of over 50% in size); details: JJN3 myeloma cells viability, CellTiter-Glo ATP, 48 h; viability, % of DMSO: at 45.8 µM (top of the series)
Method in brief: as §1

[5] = Quantitative High-Throughput drug screen in 47 multiple myeloma cell lines against the NCATS MIPE library collection: H1112_PLB cell viability assay (AID 1918967; note: nearly all actives have a fitted effect of over 30% in size); details: H1112 myeloma cells viability, ATP luminescence, 48 h; viability: at 45.8 µM (top of the series)
Method in brief: as §1

[6] = Quantitative High-Throughput drug screen in 47 multiple myeloma cell lines against the NCATS MIPE library collection: KMS12BM_JCRB cell viability assay (AID 1918971); note: nearly all actives have a fitted effect of over 35% in size
Method in brief: (§3)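 Viability readout: CellTiter-Glo luminescence following 5 min room-temperature incubation with reagent. Prior exposure: 48 h, 37C, humidified 5% CO2, 500 cells per well.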

[7] = Quantitative High-Throughput drug screen in 47 multiple myeloma cell lines against the NCATS MIPE library collection: KMS12PE_JCRB cell viability assay (AID 1918972); details: KMS12PE myeloma viability, CellTiter-Glo ATP, 48 h; viability: at 45.8 µM (top of the series); note: nearly all actives have a fitted effect of over 30% in size
Method in brief: as §2

[8] = Quantitative High-Throughput drug screen in 47 multiple myeloma cell lines against the NCATS MIPE library collection: KMS20_JCRB cell viability assay (AID 1918973); details: CellTiter-Glo ATP, 48 h; viability (% of DMSO): at 45.8 µM (top of the series); note: nearly all actives have a fitted effect of over 45% in size
Method in brief: as §1

[9] = Quantitative High-Throughput drug screen in 47 multiple myeloma cell lines against the NCATS MIPE library collection: KMS21BM_JCRB cell viability assay (AID 1918974); details: ATP luminescence, 48 h; viability: at 45.8 µM (top of the series) unless noted
Method in brief: as §1

[10] = Quantitative High-Throughput drug screen in 47 multiple myeloma cell lines against the NCATS MIPE library collection: MMM1_PLB cell viability assay (AID 1918976); note: nearly all actives have a fitted effect of over 35% in size
Method in brief: (§4)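 Viability after 48 h drug exposure was measured as ATP-dependent luminescence. Cells, 500 per well, sat at 37 °C under 5% CO2; DMSO wells set 100%, media-only wells 0%.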

[11] = Quantitative High-Throughput drug screen in 47 multiple myeloma cell lines against the NCATS MIPE library collection: MOLP8_DSMZ cell viability assay (AID 1918977); details: MOLP8 myeloma viability, CellTiter-Glo ATP luminescence, 48 h; viability (% of control): at 45.8 µM (top of the series); note: nearly all actives have a fitted effect of over 45% in size
Method in brief: as §4

[12] = Quantitative High-Throughput drug screen in 47 multiple myeloma cell lines against the NCATS MIPE library collection: MM1S_ATCC cell viability assay (AID 1918980); note: nearly all actives have a fitted effect of over 45% in size
Method in brief: as §4

[13] = Quantitative High-Throughput drug screen in 47 multiple myeloma cell lines against the NCATS MIPE library collection: KMS26_JCRB cell viability assay (AID 1918975); details: KMS26 myeloma cells viability, CellTiter-Glo ATP, 48 h; viability (% of DMSO): at 45.8 µM (top of the series); note: nearly all actives have a fitted effect of over 45% in size
Method in brief: as §3

[14] = Quantitative High-Throughput drug screen in 47 multiple myeloma cell lines against the NCATS MIPE library collection: OCIMY1_PLB cell viability assay (AID 1918979); note: nearly all actives have a fitted effect of over 35% in size
Method in brief: as §4

[15] = Quantitative High-Throughput drug screen in 47 multiple myeloma cell lines against the NCATS MIPE library collection: MM1R_ATCC cell viability assay (AID 1918981); note: nearly all actives have a fitted effect of over 35% in size
Method in brief: as §4

[16] = Quantitative High-Throughput drug screen in 47 multiple myeloma cell lines against the NCATS MIPE library collection: LP1_DSMZ cell viability assay (AID 1918982); note: nearly all actives have a fitted effect of over 35% in size
Method in brief: as §4

[17] = Quantitative High-Throughput drug screen in 47 multiple myeloma cell lines against the NCATS MIPE library collection: NCIH929_DSMZ cell viability assay (AID 1918978); note: nearly all actives have a fitted effect of over 35% in size
Method in brief: as §4

[18] = Quantitative High-Throughput drug screen in 47 multiple myeloma cell lines against the NCATS MIPE library collection: Karpas25_ECACC cell viability assay (AID 1918968; note: nearly all actives have a fitted effect of over 35% in size); details: Karpas25 myeloma viability, CellTiter-Glo ATP, 48 h; viability (% of control): at 45.8 µM (top of the series)
Method in brief: as §1

[19] = Quantitative High-Throughput drug screen in 47 multiple myeloma cell lines against the NCATS MIPE library collection: KMS28PE_JCRB cell viability assay (AID 1918983); note: nearly all actives have a fitted effect of over 35% in size
Method in brief: as §4

[20] = Quantitative High-Throughput drug screen in 47 multiple myeloma cell lines against the NCATS MIPE library collection: KMS27_JCRB cell viability assay (AID 1918970); details: KMS27 myeloma cells, CellTiter-Glo ATP viability, 48 h; viability (% of DMSO): at 45.8 µM (top of the series); note: nearly all actives have a fitted effect of over 30% in size
Method in brief: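 Myeloma cells (500 per well) were exposed to MIPE 4.0 compounds for 48 h at 37 °C, 5% CO2; viability was read as ATP luminescence with CellTiter-Glo, normalized to DMSO-only (100%) and media-only (0%) wells.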
Potency is the fitted concentration of half-maximal effect.

C[N+]1(C)[C@@H]2CC(OC(=O)[C@H](CO)c3ccccc3)C[C@H]1[C@H]1O[C@@H]12 (stereo partly specified)
Potency [1]: inconclusive: 0.0017 µM [cytotoxic, full curve, poor fit]
Potency [2]: inactive
Potency [3]: inconclusive: 0.001 µM
Potency [4]: inconclusive: 16.6 µM [rising, partial curve, poor fit]
Potency [5]: inactive
Potency [6]: inactive
Potency [7]: inactive
Potency [8]: inactive
Potency [9]: inconclusive: 9.35 µM [cytotoxic, full curve, poor fit]
Potency [10]: inconclusive: 0.0021 µM [rising, full curve, poor fit]
Potency [11]: inactive
Potency [12]: inconclusive: 0.0264 µM [rising, full curve, poor fit]

Cc1ncc([N+](=O)[O-])n1CC(C)O (stereo unspecified)
Potency [1]: inconclusive: 33.2 µM [cytotoxic, single point]
Potency [2]: inconclusive: 0.003 µM [cytotoxic, full curve, poor fit]
Potency [3]: inconclusive: 26.4 µM [cytotoxic, single point]
Potency [4]: inconclusive: 16.6 µM [rising, partial curve]
Potency [5]: inconclusive: 13.2 µM [cytotoxic, partial curve]
viability [9]: inconclusive: 108% [cytotoxic]
Potency [13]: inconclusive: 0.148 µM [rising, full curve, poor fit]
Potency [10]: inconclusive: 0.0074 µM [rising, full curve]
Potency [14]: inconclusive: 0.0012 µM [cytotoxic, full curve, poor fit]
Potency [15]: inactive
Potency [16]: inactive

OCCN(CCO)c1nc(N2CCCCC2)c2nc(N(CCO)CCO)nc(N3CCCCC3)c2n1
Potency [1]: inconclusive: 23.5 µM [cytotoxic, partial curve]
Potency [2]: active: 23.5 µM
Potency [3]: inconclusive: 18.7 µM [cytotoxic, partial curve, poor fit]
Potency [4]: active: 23.5 µM
Potency [5]: inconclusive: 26.4 µM [cytotoxic, single point]
Potency [7]: active: 23.5 µM
Potency [9]: inconclusive: 26.4 µM [cytotoxic, single point]
Potency [13]: inconclusive: 37.2 µM [cytotoxic, single point]
Potency [11]: active: 16.6 µM
Potency [17]: inconclusive: 33.2 µM [cytotoxic, single point]
Potency [14]: inconclusive: 37.2 µM [cytotoxic, single point]
Potency [12]: active: 20.9 µM
Potency [15]: inconclusive: 29.6 µM [cytotoxic, single point]
Potency [16]: inconclusive: 33.2 µM [cytotoxic, single point]

Cc1ccc2c(c1)C(=O)[C@]1(O)CCN(c3ccccc3)C1=N2
Potency [1]: inconclusive: 20.9 µM [cytotoxic, single point]
Potency [2]: inactive
Potency [3]: inconclusive: 3.32 µM [cytotoxic, full curve, poor fit]
Potency [4]: active: 11.8 µM
Potency [5]: inconclusive: 5.9 µM [cytotoxic, partial curve, poor fit]
Potency [18]: inconclusive: 2.96 µM [cytotoxic, full curve, poor fit]
Potency [6]: inconclusive: 18.7 µM [cytotoxic, partial curve, poor fit]
Potency [7]: inconclusive: 0.743 µM [cytotoxic, full curve, poor fit]
Potency [8]: active: 2.96 µM
Potency [13]: inconclusive: 0.372 µM [cytotoxic, partial curve, poor fit]
Potency [10]: inactive
Potency [11]: inconclusive: 0.001 µM
Potency [14]: inconclusive: 0.001 µM [cytotoxic]
Potency [12]: inconclusive: 10.5 µM [cytotoxic, partial curve, poor fit]
Potency [15]: inconclusive: 4.69 µM [cytotoxic, full curve, poor fit]
Potency [16]: inconclusive: 18.7 µM [cytotoxic, partial curve, poor fit]
Potency [19]: inconclusive: 16.6 µM [cytotoxic, partial curve, poor fit]

Cc1c[nH]c(C=C2C(=O)Nc3ccccc32)c1CCC(=O)O
Potency [1]: inconclusive: 26.4 µM [cytotoxic, single point]
Potency [2]: inconclusive: 23.5 µM [cytotoxic, partial curve]
Potency [3]: inconclusive: 37.2 µM [cytotoxic, single point]
Potency [4]: inconclusive: 37.2 µM [cytotoxic, single point]
Potency [5]: inconclusive: 37.2 µM [cytotoxic, single point]
Potency [18]: inconclusive: 6.62 µM [cytotoxic, partial curve, poor fit]
Potency [20]: inconclusive: 1.32 µM [cytotoxic, full curve, poor fit]
Potency [6]: inconclusive: 33.2 µM [cytotoxic, single point]
Potency [7]: inconclusive: 37.2 µM [cytotoxic, single point]
Potency [8]: inconclusive: 8.33 µM [cytotoxic, full curve, poor fit]
Potency [13]: inconclusive: 23.5 µM [cytotoxic, partial curve, poor fit]
Potency [10]: inconclusive: 0.0166 µM [rising, full curve, poor fit]
Potency [11]: inconclusive: 37.2 µM [cytotoxic, single point]
Potency [14]: inactive
Potency [12]: inconclusive: 0.0042 µM [rising, full curve, poor fit]
Potency [15]: inconclusive: 18.7 µM [cytotoxic, partial curve, poor fit]
Potency [16]: inconclusive: 20.9 µM [cytotoxic, single point]

From PubChem BioAssay (NCATS)
